From PMC12483965
Results are given in words; binding and its absence hold for the method and conditions named. In cells and extracts the contact can be indirect. Some results given as binding are weak or reduced against the parent protein; the word gives no strength. Sequences can lack the tags named with a protein.

Target: T1, LA5-nLUC (rice (Oryza sativa L. subsp. japonica, ZH11 cDNA)) (UniProt Q8H8V7)
T1 sequence: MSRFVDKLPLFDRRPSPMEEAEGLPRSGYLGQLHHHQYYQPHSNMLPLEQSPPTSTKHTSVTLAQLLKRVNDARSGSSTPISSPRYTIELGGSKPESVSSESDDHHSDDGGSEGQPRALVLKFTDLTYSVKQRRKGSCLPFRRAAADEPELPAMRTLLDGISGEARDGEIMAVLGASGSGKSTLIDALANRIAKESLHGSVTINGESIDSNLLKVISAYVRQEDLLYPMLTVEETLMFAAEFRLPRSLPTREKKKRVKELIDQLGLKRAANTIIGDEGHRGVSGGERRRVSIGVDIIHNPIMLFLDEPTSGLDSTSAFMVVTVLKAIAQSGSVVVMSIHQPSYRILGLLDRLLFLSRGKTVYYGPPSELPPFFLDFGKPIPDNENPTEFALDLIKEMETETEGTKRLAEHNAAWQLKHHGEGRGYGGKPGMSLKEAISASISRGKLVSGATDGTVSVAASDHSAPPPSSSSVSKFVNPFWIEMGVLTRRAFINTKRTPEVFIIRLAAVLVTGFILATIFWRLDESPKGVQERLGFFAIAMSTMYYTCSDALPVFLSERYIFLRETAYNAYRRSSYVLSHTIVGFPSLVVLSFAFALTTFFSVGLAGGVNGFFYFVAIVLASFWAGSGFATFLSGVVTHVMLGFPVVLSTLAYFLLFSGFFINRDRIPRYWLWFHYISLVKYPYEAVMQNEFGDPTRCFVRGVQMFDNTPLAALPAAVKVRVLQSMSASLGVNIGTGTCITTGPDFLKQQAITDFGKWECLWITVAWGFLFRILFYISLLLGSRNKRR
Experiment: split reporter; luciferase complementation imaging (LCI): LA5-nLUC and OsPIN3t-cLUC co-injected into N. benthamiana leaves, beetle luciferin as substrate

- binding: binds
B1: OsPIN3t-cLUC (protein, UniProt Q5VP70 1-618)
chain: MISGHDFYTVMAAVVPLYVAMFLAYGSVRWWGIFTPDQCSGINRFVAIFAVPLLSFHFISTNDPYAMNLRFLAADTLQKLLVLAGLAAWSRLPSRTGAPRLDWSITLFSLSTLPNTLVMGIPLLIAMYGPYSGSLMVQIVVLQCIIWYTLMLFLFEFRAARMLIADQFPDTAASIVSLHVDPDVVSLEGGHAETEAEVAADGRLHVTVRRSSVSRRSLLVTPRPSNLTGAEIYSLSSSRNPTPRGSNFNHADFFAMVGGGPPPPTPAAVRGSSFGASELYSLQSSRGPTPRQSNFDEHSARPPKPPATTTGALNHDAKELHMFVWSSSASPVSEVSGLPVFSGGGGGGALDVGAKEIHMVIPADLPQNNGSGKEHEEYGAVALGGGGGGENFSFGGGKTVDGAEAVDEEAALPDGLTKMGSSSTAELHPKVVDVDGPNAGGGAAGAGQYQMPPASVMTRLILIMVWRKLIRNPNTYSSLLGLAWSLVAFRWHVSMPAIVEKSISILSDAGLGMAMFSLGLFMALQPSIIACGKSAAVVSMAVRFLAGPAVMAAASIAIGLRGTLLHVAIVQAALPQGIVPFVFAKEYNVHPAILSTAVIFGMLIALPITLLYYILLGL
